Results are given in words; binding and its absence hold for the method and conditions named. Some entries that bind do so weakly or less than the wild type.

Amino acid sequences for entries named in this document (tags omitted).
UniProt P49023: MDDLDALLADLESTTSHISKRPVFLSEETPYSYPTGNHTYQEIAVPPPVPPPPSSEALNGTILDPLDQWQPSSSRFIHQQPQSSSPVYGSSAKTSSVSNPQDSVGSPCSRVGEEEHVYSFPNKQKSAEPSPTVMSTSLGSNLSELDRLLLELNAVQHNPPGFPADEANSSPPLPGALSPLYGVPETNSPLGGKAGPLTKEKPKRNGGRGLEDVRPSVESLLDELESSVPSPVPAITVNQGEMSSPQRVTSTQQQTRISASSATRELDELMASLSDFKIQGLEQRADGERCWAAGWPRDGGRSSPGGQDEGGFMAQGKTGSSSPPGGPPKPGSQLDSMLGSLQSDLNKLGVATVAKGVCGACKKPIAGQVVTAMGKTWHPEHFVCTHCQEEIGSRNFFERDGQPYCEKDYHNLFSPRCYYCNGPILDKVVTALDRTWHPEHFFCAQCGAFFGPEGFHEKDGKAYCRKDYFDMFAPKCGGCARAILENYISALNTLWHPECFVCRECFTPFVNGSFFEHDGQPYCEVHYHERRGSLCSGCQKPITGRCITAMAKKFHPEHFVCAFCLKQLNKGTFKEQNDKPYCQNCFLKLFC

In assay [1] the target is paxillin (UniProt P49023). As to the kind of experiment: physical association in SNU449 cell lysates (FIG. 10 legend).
The target in assay [2] is paxillin (UniProt P49023). The assay is described as follows: physical association in SNU449 cell lysates with or without tiarellic acid (FIG. 10; method not described).

B1: p130Cas (other, UniProt P56945 1-870, looked up)
chain: MNHLNVLAKALYDNVAESPDELSFRKGDIMTVLEQDTQGLDGWWLCSLHGRQGIVPGNRLKILVGMYDKKPAGPGPGPPATPAQPQPGLHAPAPPASQYTPMLPNTYQPQPDSVYLVPTPSKAQQGLYQVPGPSPQFQSPPAKQTSTFSKQTPHHPFPSPATDLYQVPPGPGGPAQDIYQVPPSAGMGHDIYQVPPSMDTRSWEGTKPPAKVVVPTRVGQGYVYEAAQPEQDEYDIPRHLLAPGPQDIYDVPPVRGLLPSQYGQEVYDTPPMAVKGPNGRDPLLEVYDVPPSVEKGLPPSNHHAVYDVPPSVSKDVPDGPLLREETYDVPPAFAKAKPFDPARTPLVLAAPPPDSPPAEDVYDVPPPAPDLYDVPPGLRRPGPGTLYDVPRERVLPPEVADGGVVDSGVYAVPPPAEREAPAEGKRLSASSTGSTRSSQSASSLEVAGPGREPLELEVAVEALARLQQGVSATVAHLLDLAGSAGATGSWRSPSEPQEPLVQDLQAAVAAVQSAVHELLEFARSAVGNAAHTSDRALHAKLSRQLQKMEDVHQTLVAHGQALDAGRGGSGATLEDLDRLVACSRAVPEDAKQLASFLHGNASLLFRRTKATAPGPEGGGTLHPNPTDKTSSIQSRPLPSPPKFTSQDSPDGQYENSEGGWMEDYDYVHLQGKEEFEKTQKELLEKGSITRQGKSQLELQQLKQFERLEQEVSRPIDHDLANWTPAQPLAPGRTGGLGPSDRQLLLFYLEQCEANLTTLTNAVDAFFTAVATNQPPKIFVAHSKFVILSAHKLVFIGDTLSRQAKAADVRSQVTHYSNLLCDLLRGIVATTKAAALQYPSPSAAQDMVERVKELGHSTQQFRRVLGQLAAA
notes: Endogenous protein in lysates of SNU449 cell lines
For B1, the binding entry in the assay with paxillin [1] and with paxillin [2] was “binds” in each case.
